PubChem BioAssay AID743121, NCATS – 2013
The whole screen tested about 26,000 reagents; this is a random part of them. In the full data, 167 (0.63%) are marked active. 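Calls are per gene from RSA p-values that are not deposited; an individual active-marked siRNA can sensitise only weakly.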 The numbers tell different reagents against one gene apart.

- Purpose: 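Genes whose silencing strengthens cell killing by camptothecin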 (primary screen)
- System: MDA-MB-231 cells, a human breast cancer line
- Reagent: single siRNA against human genes, 20 nM siRNA (0.8 pmol per well)
- Duration: 120 h (drug added 48 h after transfection, read 72 h later)
- Treatment: camptothecin 20 nM (about EC30) for 72 h; vehicle 0.1% DMSO in parallel plates
- Measured: 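Cell viability by ATP luminescence (CellTiter-Glo) as % of non-targeting siRNA wells, and the log2 ratio of viability without drug over viability with camptothecin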
- Reading the numbers: log2 vehicle/camptothecin viability: higher = stronger sensitisation to camptothecin; viability with camptothecin and viability without drug: higher = more viable cells
- Hit rule: 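Each gene scored by redundant siRNA activity (RSA) over its individual siRNA ratios; a gene is called active at p < 0.001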

gene symbol,siRNA no.,log2 vehicle/camptothecin viability,viability with camptothecin (% of control),viability without drug (% of control),Call
"MUC17 (mucin 17, cell surface associated)",1,-0.586,16.4,11,inactive
"MUC17 (mucin 17, cell surface associated)",2,-0.161,83.8,74.9,inactive
"MUC17 (mucin 17, cell surface associated)",3,0.347,82.7,105,inactive
"MUC17 (mucin 17, cell surface associated)",4,-0.438,108,79.6,inactive
GRM8 (glutamate metabotropic receptor 8),1,-0.151,103,92.9,inactive
GRM8 (glutamate metabotropic receptor 8),2,-0.267,84.7,70.4,inactive
GRM8 (glutamate metabotropic receptor 8),3,-0.504,83.1,58.6,inactive
GRM8 (glutamate metabotropic receptor 8),4,-0.0345,79,77.2,inactive
RBX1 (ring-box 1),1,-0.151,53.9,48.5,inactive
RBX1 (ring-box 1),2,-0.416,93,69.7,inactive
RBX1 (ring-box 1),3,-0.19,76.2,66.8,inactive
RBX1 (ring-box 1),4,-0.561,75.5,51.2,inactive
ATRNL1 (attractin like 1),1,0.111,72.5,78.3,inactive
ATRNL1 (attractin like 1),2,-0.508,135,95.1,inactive
ATRNL1 (attractin like 1),3,-0.679,82.6,51.6,inactive
CACNA1E (calcium voltage-gated channel subunit alpha1 E),1,-0.142,93.2,84.5,inactive
CACNA1E (calcium voltage-gated channel subunit alpha1 E),2,-0.409,68.5,51.6,inactive
CACNA1E (calcium voltage-gated channel subunit alpha1 E),3,-0.534,57,39.4,inactive
CACNA1E (calcium voltage-gated channel subunit alpha1 E),4,-0.425,62.6,46.6,inactive
ITCH (itchy E3 ubiquitin protein ligase),1,-0.302,74.2,60.2,inactive
ITCH (itchy E3 ubiquitin protein ligase),2,0.091,48,51.1,inactive
ITCH (itchy E3 ubiquitin protein ligase),3,-0.0381,59.7,58.2,inactive
ITCH (itchy E3 ubiquitin protein ligase),4,-0.0255,100,98.5,inactive
CCR1 (C-C motif chemokine receptor 1),1,-0.222,69.6,59.7,inactive
CCR1 (C-C motif chemokine receptor 1),2,-0.349,101,79.4,inactive
CCR1 (C-C motif chemokine receptor 1),3,-0.226,77.2,66,inactive
CCR1 (C-C motif chemokine receptor 1),4,-0.0885,58.6,55.2,inactive
GPR55 (G protein-coupled receptor 55),1,1.18,47.1,107,inactive
GPR55 (G protein-coupled receptor 55),2,-0.0692,97.9,93.3,inactive
GPR55 (G protein-coupled receptor 55),3,0.823,35.8,63.3,inactive
GPR55 (G protein-coupled receptor 55),4,-0.602,98,64.5,inactive
ARSG (arylsulfatase G),1,-0.13,71.1,65,inactive
ARSG (arylsulfatase G),2,0.304,48.6,60,inactive
ARSG (arylsulfatase G),3,0.439,40.7,55.1,inactive
ARSG (arylsulfatase G),4,-0.0248,75.8,74.6,inactive
GRM2 (glutamate metabotropic receptor 2),1,-0.319,60.6,48.6,inactive
GRM2 (glutamate metabotropic receptor 2),2,-0.275,71.4,59,inactive
GRM2 (glutamate metabotropic receptor 2),3,-0.151,73.8,66.4,inactive
GRM2 (glutamate metabotropic receptor 2),4,0.131,96.6,106,inactive
LHCGR (luteinizing hormone/choriogonadotropin receptor),1,0.016,25.6,25.9,inactive
LHCGR (luteinizing hormone/choriogonadotropin receptor),2,-0.305,95.8,77.5,inactive
LHCGR (luteinizing hormone/choriogonadotropin receptor),3,-0.277,76.8,63.4,inactive
LHCGR (luteinizing hormone/choriogonadotropin receptor),4,-0.556,83.8,57,inactive
SSH2 (slingshot protein phosphatase 2),1,0.193,68.6,78.5,inactive
SSH2 (slingshot protein phosphatase 2),2,-0.56,93.9,63.7,inactive
SSH2 (slingshot protein phosphatase 2),3,-0.105,89.1,82.9,inactive
SSH2 (slingshot protein phosphatase 2),4,-0.0695,85.6,81.5,inactive

2 entries from above, limited to “viability without drug (% of control)”:
LHCGR (luteinizing hormone/choriogonadotropin receptor) #3	63.4
LHCGR (luteinizing hormone/choriogonadotropin receptor) #4	57
